# Reference: the supplement of paper PMC8728848
# Some of the results follow.
# B1: PX14343F-bfa-562-20-562 (Bacteroides fragilis) (protein)
# chain: CDDFLDSFPQDTVTNENFWKSKEDADKVLVDIYASLLPKDAIFFDEAMSDNAYLVWDWWGGAQQVANGSYTTSGEIPTNRWNGSYEVIRKCWFLLEGIEKIEDISEQDKNKIIGETYFMLAYNYYVLTSYFGDVPLVTKTLAIPESKQLVRTPKAEVVDYAINKLKEAAVMLEGLSQEKGRVTADACRFLIARMYLYNGDYSNVLETVKLLEGKYQLYREGDTPYEDLFSGVAENSCEVILSVVCDKRVGEIYTSHGGNGIMLLKGITGEDPYRGVTPSGSLVDAYPMADGRLIHEAGSSYDPKKPYEGRDPRFYQSIVYPTGQIKYLDVETGTVKERLYDPEDPTTVPEHQYNYSQPSATGYMWNKYIDYSVYAMNSVWDCTNDIIVFRYADVLLMKAEALLQTKGESAKEEVCNLIDQLRDRCSCGRVHRENYNSKDELMELLKNERRIELANEGLRYMDLIRWKDAEKNTIVTGVGLTGQMYGAYMRKDGVGKDDKTVDVDNTPRRYIETRYFNASKGYLFPIPQKERDLNPNLTQNPNW
# How the values were obtained:
# Test in all cases: glycan array binding signal (z-score within array); higher = stronger binding
# Settings in all cases: glycan notation: IUPAC condensed, linker removed
# [1] = target: GlcNAc(b1-3)Gal(b1-4)GlcNAc(b1-3)Gal(b1-4)GlcNAc(b1-3)GalNAc
# How it was run: (§1)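 The Consortium for Functional Glycomics database supplied 3228 glycan arrays, of which those lacking an available protein sequence were dropped. The binding signal, a within-array Z-score, was averaged across arrays of the same protein sequence and across linkers. Negative scores can be read as non-binding.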
# [2] = target: GlcNAc(b1-3)Gal(b1-4)GlcNAc(b1-3)GalNAc
# How it was run: as §1
# [3] = target: GlcNAc(b1-3)Gal(b1-4)GlcNAc(b1-3)[GlcNAc(b1-3)Gal(b1-4)GlcNAc(b1-3)]GalNAc
# How it was run: as §1
# [4] = target: GlcNAc(b1-3)Gal(b1-4)GlcNAc(b1-6)[Gal(b1-3)]GalNAc
# How it was run: as §1
# [5] = target: GlcNAc(b1-3)Gal(b1-4)GlcNAc(b1-6)[GlcNAc(b1-3)Gal(b1-3)]GalNAc
# How it was run: as §1
# [6] = target: GlcNAc(b1-3)Gal(b1-4)GlcNAc(b1-6)[GlcNAc(b1-3)]Gal(b1-4)GlcNAc
# How it was run: as §1
# GlcNAc(b1-3)GalNAc = target: GlcNAc(b1-3)GalNAc
# How it was run: as §1
# GlcNAc(b1-3)Man = target: GlcNAc(b1-3)Man
# How it was run: as §1
# [7] = target: GlcNAc(b1-3)[GlcNAc(b1-4)][GlcNAc(b1-6)]GlcNAc
# How it was run: as §1
# [8] = target: GlcNAc(b1-3)[GlcNAc(b1-6)]Gal(b1-4)GlcNAc
# How it was run: as §1
# [9] = target: GlcNAc(b1-3)[GlcNAc(b1-6)]GalNAc
# How it was run: as §1
# [10] = target: GlcNAc(b1-4)Gal(b1-4)GlcNAc
# How it was run: as §1
# GlcNAc(b1-4)GlcNAc = target: GlcNAc(b1-4)GlcNAc
# How it was run: as §1
# [11] = target: GlcNAc(b1-4)GlcNAc(b1-4)GlcNAc
# How it was run: as §1
# [12] = target: GlcNAc(b1-4)GlcNAc(b1-4)GlcNAc(b1-4)GlcNAc(b1-4)GlcNAc
# How it was run: as §1
# [13] = target: GlcNAc(b1-4)GlcNAc(b1-4)GlcNAc(b1-4)GlcNAc(b1-4)GlcNAc(b1-4)GlcNAc
# How it was run: as §1
# [14] = target: GlcNAc(b1-4)[GlcNAc(b1-6)]GalNAc
# How it was run: as §1
# [15] = target: GlcNAc(b1-6)Gal(b1-4)GlcNAc
# How it was run: as §1
# GlcNAc(b1-6)GalNAc = target: GlcNAc(b1-6)GalNAc
# How it was run: as §1
# [16] = target: GlcNAc6S(b1-3)Gal(b1-4)GlcNAc
# How it was run: as §1
# Kdn(a2-3)Gal(b1-3)GalNAc = target: Kdn(a2-3)Gal(b1-3)GalNAc
# How it was run: as §1
# Kdn(a2-3)Gal(b1-3)GlcNAc = target: Kdn(a2-3)Gal(b1-3)GlcNAc
# How it was run: as §1
# Kdn(a2-3)Gal(b1-4)Glc = target: Kdn(a2-3)Gal(b1-4)Glc
# How it was run: as §1
# Kdn(a2-3)Gal(b1-4)GlcNAc = target: Kdn(a2-3)Gal(b1-4)GlcNAc
# How it was run: as §1
# [17] = target: Kdn(a2-3)Gal(b1-4)[Fuc(a1-3)]GlcNAc
# How it was run: as §1
# Kdn(a2-6)Gal(b1-4)GlcNAc = target: Kdn(a2-6)Gal(b1-4)GlcNAc
# How it was run: as §1
# [18] = target: Man(a1-2)Man(a1-2)Man(a1-3)Man
# How it was run: as §1
# [19] = target: Man(a1-2)Man(a1-2)Man(a1-6)[Man(a1-3)]Man
# How it was run: as §1
# Man(a1-2)Man(a1-3)Man = target: Man(a1-2)Man(a1-3)Man
# How it was run: as §1
# [20] = target: Man(a1-2)Man(a1-3)[Man(a1-2)Man(a1-6)]Man
# How it was run: as §1
# [21] = target: Man(a1-2)Man(a1-3)[Man(a1-2)Man(a1-6)]Man(a1-6)[Man(a1-2)Man(a1-2)Man(a1-3)]Man
# How it was run: as §1
# [22] = target: Man(a1-2)Man(a1-3)[Man(a1-2)Man(a1-6)]Man(a1-6)[Man(a1-2)Man(a1-2)Man(a1-3)]Man(b1-4)GlcNAc(b1-4)GlcNAc
# How it was run: as §1
# [23] = target: Man(a1-2)Man(a1-3)[Man(a1-6)]Man(a1-6)[Man(a1-2)Man(a1-3)]Man(b1-4)GlcNAc(b1-4)GlcNAc
# How it was run: as §1
# [24] = target: Man(a1-2)Man(a1-6)[Man(a1-3)]Man(a1-6)[Man(a1-2)Man(a1-2)Man(a1-3)]Man
# How it was run: as §1
# [25] = target: Man(a1-2)Man(a1-6)[Man(a1-3)]Man(a1-6)[Man(a1-2)Man(a1-2)Man(a1-3)]Man(b1-4)GlcNAc(b1-4)GlcNAc
# How it was run: as §1
# Man(a1-3)[Man(a1-6)]Man = target: Man(a1-3)[Man(a1-6)]Man
# How it was run: as §1
# [26] = target: Man(a1-3)[Man(a1-6)]Man(a1-6)[Man(a1-2)Man(a1-3)]Man(b1-4)GlcNAc(b1-4)GlcNAc
# How it was run: as §1
# [27] = target: Man(a1-3)[Man(a1-6)]Man(a1-6)[Man(a1-3)]Man
# How it was run: as §1
# [28] = target: Man(a1-3)[Man(a1-6)]Man(a1-6)[Man(a1-3)]Man(b1-4)GlcNAc(b1-4)GlcNAc
# How it was run: as §1
# [29] = target: Man(a1-3)[Man(a1-6)]Man(b1-4)GlcNAc(b1-4)GlcNAc
# How it was run: as §1
# [30] = target: Man(a1-3)[Man(a1-6)]Man(b1-4)GlcNAc(b1-4)[Fuc(a1-6)]GlcNAc
# How it was run: as §1
# Man(a1-6)Man = target: Man(a1-6)Man
# How it was run: as §1
# Man(b1-4)GlcNAc = target: Man(b1-4)GlcNAc
# How it was run: as §1
# MurNAc(b1-4)GlcNAc = target: MurNAc(b1-4)GlcNAc
# How it was run: as §1
# Neu5Ac(a2-3)Gal = target: Neu5Ac(a2-3)Gal
# How it was run: as §1
# [31] = target: Neu5Ac(a2-3)Gal(b1-3)GalNAc
# How it was run: as §1
# [32] = target: Neu5Ac(a2-3)Gal(b1-3)GalNAc(b1-3)Gal(a1-4)Gal(b1-4)Glc
# How it was run: as §1
# [33] = target: Neu5Ac(a2-3)Gal(b1-3)GalNAc(b1-4)[Neu5Ac(a2-3)]Gal(b1-4)Glc
# How it was run: as §1
# [34] = target: Neu5Ac(a2-3)Gal(b1-3)GalNAc(b1-4)[Neu5Ac(a2-8)Neu5Ac(a2-3)]Gal(b1-4)Glc
# How it was run: as §1
# [35] = target: Neu5Ac(a2-3)Gal(b1-3)GalNAc6S
# How it was run: as §1
# [36] = target: Neu5Ac(a2-3)Gal(b1-3)GlcNAc
# How it was run: as §1
# [37] = target: Neu5Ac(a2-3)Gal(b1-3)GlcNAc(b1-2)Man
# How it was run: as §1
# [38] = target: Neu5Ac(a2-3)Gal(b1-3)GlcNAc(b1-2)Man(a1-3)[GlcNAc(b1-4)][Neu5Ac(a2-3)Gal(b1-3)GlcNAc(b1-2)Man(a1-6)]Man(b1-4)GlcNAc(b1-4)GlcNAc
# How it was run: as §1
# [39] = target: Neu5Ac(a2-3)Gal(b1-3)GlcNAc(b1-2)Man(a1-3)[Neu5Ac(a2-3)Gal(b1-3)GlcNAc(b1-2)Man(a1-6)]Man(b1-4)GlcNAc(b1-4)GlcNAc
# How it was run: as §1
# [40] = target: Neu5Ac(a2-3)Gal(b1-3)GlcNAc(b1-3)Gal(b1-3)GlcNAc
# How it was run: as §1
# [41] = target: Neu5Ac(a2-3)Gal(b1-3)GlcNAc(b1-3)Gal(b1-4)GlcNAc
# How it was run: as §1
# [42] = target: Neu5Ac(a2-3)Gal(b1-3)GlcNAc(b1-3)GalNAc
# How it was run: as §1
# [43] = target: Neu5Ac(a2-3)Gal(b1-3)GlcNAc(b1-4)Gal(b1-4)Glc
# How it was run: as §1
# [44] = target: Neu5Ac(a2-3)Gal(b1-3)GlcNAc(b1-6)GalNAc
# How it was run: as §1
# [45] = target: Neu5Ac(a2-3)Gal(b1-3)GlcNAc6S
# How it was run: as §1
binder,measurement,setting,value
B1,glycan array binding signal (z-score),[1],-0.967
same,glycan array binding signal (z-score),[2],0.486
same,glycan array binding signal (z-score),[3],-0.273
same,glycan array binding signal (z-score),[4],-0.368
same,glycan array binding signal (z-score),[5],-0.237
same,glycan array binding signal (z-score),[6],-0.621
same,glycan array binding signal (z-score),GlcNAc(b1-3)GalNAc,-0.59
same,glycan array binding signal (z-score),GlcNAc(b1-3)Man,0.528
same,glycan array binding signal (z-score),[7],0.065
same,glycan array binding signal (z-score),[8],-0.149
same,glycan array binding signal (z-score),[9],-0.401
same,glycan array binding signal (z-score),[10],-0.306
same,glycan array binding signal (z-score),GlcNAc(b1-4)GlcNAc,-0.708
same,glycan array binding signal (z-score),[11],0.054
same,glycan array binding signal (z-score),[12],-0.37
same,glycan array binding signal (z-score),[13],-0.538
same,glycan array binding signal (z-score),[14],0.005
same,glycan array binding signal (z-score),[15],-0.277
same,glycan array binding signal (z-score),GlcNAc(b1-6)GalNAc,-0.589
same,glycan array binding signal (z-score),[16],0.136
same,glycan array binding signal (z-score),Kdn(a2-3)Gal(b1-3)GalNAc,0.066
same,glycan array binding signal (z-score),Kdn(a2-3)Gal(b1-3)GlcNAc,0.344
same,glycan array binding signal (z-score),Kdn(a2-3)Gal(b1-4)Glc,-0.016
same,glycan array binding signal (z-score),Kdn(a2-3)Gal(b1-4)GlcNAc,0.631
same,glycan array binding signal (z-score),[17],-0.468
same,glycan array binding signal (z-score),Kdn(a2-6)Gal(b1-4)GlcNAc,1.1
same,glycan array binding signal (z-score),[18],-0.59
same,glycan array binding signal (z-score),[19],0.148
same,glycan array binding signal (z-score),Man(a1-2)Man(a1-3)Man,-0.87
same,glycan array binding signal (z-score),[20],-0.728
same,glycan array binding signal (z-score),[21],0.617
same,glycan array binding signal (z-score),[22],-0.697
same,glycan array binding signal (z-score),[23],-0.122
same,glycan array binding signal (z-score),[24],-0.323
same,glycan array binding signal (z-score),[25],-0.609
same,glycan array binding signal (z-score),Man(a1-3)[Man(a1-6)]Man,0.832
same,glycan array binding signal (z-score),[26],0.079
same,glycan array binding signal (z-score),[27],0.119
same,glycan array binding signal (z-score),[28],1.02
same,glycan array binding signal (z-score),[29],-0.476
same,glycan array binding signal (z-score),[30],-0.328
same,glycan array binding signal (z-score),Man(a1-6)Man,-0.282
same,glycan array binding signal (z-score),Man(b1-4)GlcNAc,0.146
same,glycan array binding signal (z-score),MurNAc(b1-4)GlcNAc,-0.093
same,glycan array binding signal (z-score),Neu5Ac(a2-3)Gal,-0.6
same,glycan array binding signal (z-score),[31],-0.546
same,glycan array binding signal (z-score),[32],-0.68
same,glycan array binding signal (z-score),[33],-0.166
same,glycan array binding signal (z-score),[34],-0.5
same,glycan array binding signal (z-score),[35],-0.506
same,glycan array binding signal (z-score),[36],-0.389
same,glycan array binding signal (z-score),[37],-0.734
same,glycan array binding signal (z-score),[38],-1.07
same,glycan array binding signal (z-score),[39],-0.333
same,glycan array binding signal (z-score),[40],-0.857
same,glycan array binding signal (z-score),[41],0.353
same,glycan array binding signal (z-score),[42],-0.209
same,glycan array binding signal (z-score),[43],-0.046
same,glycan array binding signal (z-score),[44],1.15
same,glycan array binding signal (z-score),[45],-0.149

# At a glance, some entries already given:
binder,measurement,setting,value
B1,glycan array binding signal (z-score),[43],-0.046
same,glycan array binding signal (z-score),[44],1.15
same,glycan array binding signal (z-score),[45],-0.149
